# Patent publication US20090156614A1, “Selective androgen receptor modulators, analogs and derivatives thereof and uses thereof” (priority 2006, published 2009)
# Experiment: Intramolecular hydrogen bonding analysis of solution conformation (NOESY, DMSO-d6)
# Type: physicochemical
# Details: hydrogen bond defined as <3.1 Å
Compound,NH—OH interatomic distance (linker amide proton to linker hydroxyl oxygen),NH—X interatomic distance (linker amide proton to linker X-position atom)
C[C@](O)(CSc1ccc(F)cc1)C(=O)Nc1ccc([N+](=O)[O-])c(C(F)(F)F)c1 [Compound X-2],2.1 Å,3.0 Å
C[C@](O)(COc1ccc(F)cc1)C(=O)Nc1ccc([N+](=O)[O-])c(C(F)(F)F)c1 [Compound S-1],2.4 Å,2.3 Å
C[C@](O)(CS(=O)(=O)c1ccc(F)cc1)C(=O)Nc1ccc([N+](=O)[O-])c(C(F)(F)F)c1 [Compound X-3],2.0 Å,3.6 Å
C[C@](O)(CNc1ccc(F)cc1)C(=O)Nc1ccc([N+](=O)[O-])c(C(F)(F)F)c1 [Compound X-4],2.3 Å,4.4 Å
C[C@](O)(CCc1ccc(F)cc1)C(=O)Nc1ccc([N+](=O)[O-])c(C(F)(F)F)c1 [Compound X-5],2.0 Å,3.9 Å
CC(=O)Nc1ccc(OC[C@](C)(O)C(=O)Nc2ccc([N+](=O)[O-])c(C(F)(F)F)c2)cc1 [Compound S-4],2.7 Å,1.9 Å
